The assay relates to MX-1 breast xenograft, nude mice, tumor weight T/C. As to the kind of experiment: NCI In Vivo Anticancer Drug Screen. Data for tumor model Human Mammary Carcinoma MX-1 Xenograft (intrarenal inoculation) in NU/NU Swiss (nude) mice. Conditions: T/C endpoint: mean tumor weight change, schedule: Q01DX010 (sc), vehicle: saline, evaluated on day 11, higher T/C = larger tumour. As for the experimental part:
The antitumor activity of compounds was measured in mice bearing transplantable tumors. Survival or tumor size were measured and the results are expressed as the measurement made in the treated group (T) divided by the measurement made in the vehicle treated control group (C). The tumor model used in this assay is Human Mammary Carcinoma MX-1 Xenograft (intrarenal inoculation) in NU/NU Swiss (nude) mice
In general terms: A xenograft is tissue or cells of one species grown in another, often human tumour cells in immunodeficient mice.

The list is a part of this screen's results and no random one: it gathers some chemical classes. Not every dose and run of a compound is shown. T/C gives the treated animals as a percentage of the vehicle group. Schedules are NCI's codes, taken here to give the interval after Q, in days (D) or hours (H), and the number of doses after X. Some T/C values are negative: the treated tumours shrank. Some entries hold several experiments; their values stand side by side, smallest first.

For `CN(CCCl)CCCl`, the T/C (dose: 0.06 mg/kg/injection) was 83 % of control; the T/C (dose: 0.13 mg/kg/injection) was 25 and 28 % of control; the T/C (dose: 0.25 mg/kg/injection) was -85 and 1 % of control; the T/C (dose: 0.5 mg/kg/injection) was -67 % of control.

(Values after PubChem BioAssay AID296 (DTP/NCI, 2004).)
